Data as given in PMC6825199.
These are yes or no findings as the source states them, for the method shown. In cells and extracts the contact can be indirect. Here binding means that the protein was enriched with, or labelled near, the bait; the list need not be complete.

Sequences of proteins named here, by UniProt entry; tags and fusion partners are left off.
UniProt Q17551: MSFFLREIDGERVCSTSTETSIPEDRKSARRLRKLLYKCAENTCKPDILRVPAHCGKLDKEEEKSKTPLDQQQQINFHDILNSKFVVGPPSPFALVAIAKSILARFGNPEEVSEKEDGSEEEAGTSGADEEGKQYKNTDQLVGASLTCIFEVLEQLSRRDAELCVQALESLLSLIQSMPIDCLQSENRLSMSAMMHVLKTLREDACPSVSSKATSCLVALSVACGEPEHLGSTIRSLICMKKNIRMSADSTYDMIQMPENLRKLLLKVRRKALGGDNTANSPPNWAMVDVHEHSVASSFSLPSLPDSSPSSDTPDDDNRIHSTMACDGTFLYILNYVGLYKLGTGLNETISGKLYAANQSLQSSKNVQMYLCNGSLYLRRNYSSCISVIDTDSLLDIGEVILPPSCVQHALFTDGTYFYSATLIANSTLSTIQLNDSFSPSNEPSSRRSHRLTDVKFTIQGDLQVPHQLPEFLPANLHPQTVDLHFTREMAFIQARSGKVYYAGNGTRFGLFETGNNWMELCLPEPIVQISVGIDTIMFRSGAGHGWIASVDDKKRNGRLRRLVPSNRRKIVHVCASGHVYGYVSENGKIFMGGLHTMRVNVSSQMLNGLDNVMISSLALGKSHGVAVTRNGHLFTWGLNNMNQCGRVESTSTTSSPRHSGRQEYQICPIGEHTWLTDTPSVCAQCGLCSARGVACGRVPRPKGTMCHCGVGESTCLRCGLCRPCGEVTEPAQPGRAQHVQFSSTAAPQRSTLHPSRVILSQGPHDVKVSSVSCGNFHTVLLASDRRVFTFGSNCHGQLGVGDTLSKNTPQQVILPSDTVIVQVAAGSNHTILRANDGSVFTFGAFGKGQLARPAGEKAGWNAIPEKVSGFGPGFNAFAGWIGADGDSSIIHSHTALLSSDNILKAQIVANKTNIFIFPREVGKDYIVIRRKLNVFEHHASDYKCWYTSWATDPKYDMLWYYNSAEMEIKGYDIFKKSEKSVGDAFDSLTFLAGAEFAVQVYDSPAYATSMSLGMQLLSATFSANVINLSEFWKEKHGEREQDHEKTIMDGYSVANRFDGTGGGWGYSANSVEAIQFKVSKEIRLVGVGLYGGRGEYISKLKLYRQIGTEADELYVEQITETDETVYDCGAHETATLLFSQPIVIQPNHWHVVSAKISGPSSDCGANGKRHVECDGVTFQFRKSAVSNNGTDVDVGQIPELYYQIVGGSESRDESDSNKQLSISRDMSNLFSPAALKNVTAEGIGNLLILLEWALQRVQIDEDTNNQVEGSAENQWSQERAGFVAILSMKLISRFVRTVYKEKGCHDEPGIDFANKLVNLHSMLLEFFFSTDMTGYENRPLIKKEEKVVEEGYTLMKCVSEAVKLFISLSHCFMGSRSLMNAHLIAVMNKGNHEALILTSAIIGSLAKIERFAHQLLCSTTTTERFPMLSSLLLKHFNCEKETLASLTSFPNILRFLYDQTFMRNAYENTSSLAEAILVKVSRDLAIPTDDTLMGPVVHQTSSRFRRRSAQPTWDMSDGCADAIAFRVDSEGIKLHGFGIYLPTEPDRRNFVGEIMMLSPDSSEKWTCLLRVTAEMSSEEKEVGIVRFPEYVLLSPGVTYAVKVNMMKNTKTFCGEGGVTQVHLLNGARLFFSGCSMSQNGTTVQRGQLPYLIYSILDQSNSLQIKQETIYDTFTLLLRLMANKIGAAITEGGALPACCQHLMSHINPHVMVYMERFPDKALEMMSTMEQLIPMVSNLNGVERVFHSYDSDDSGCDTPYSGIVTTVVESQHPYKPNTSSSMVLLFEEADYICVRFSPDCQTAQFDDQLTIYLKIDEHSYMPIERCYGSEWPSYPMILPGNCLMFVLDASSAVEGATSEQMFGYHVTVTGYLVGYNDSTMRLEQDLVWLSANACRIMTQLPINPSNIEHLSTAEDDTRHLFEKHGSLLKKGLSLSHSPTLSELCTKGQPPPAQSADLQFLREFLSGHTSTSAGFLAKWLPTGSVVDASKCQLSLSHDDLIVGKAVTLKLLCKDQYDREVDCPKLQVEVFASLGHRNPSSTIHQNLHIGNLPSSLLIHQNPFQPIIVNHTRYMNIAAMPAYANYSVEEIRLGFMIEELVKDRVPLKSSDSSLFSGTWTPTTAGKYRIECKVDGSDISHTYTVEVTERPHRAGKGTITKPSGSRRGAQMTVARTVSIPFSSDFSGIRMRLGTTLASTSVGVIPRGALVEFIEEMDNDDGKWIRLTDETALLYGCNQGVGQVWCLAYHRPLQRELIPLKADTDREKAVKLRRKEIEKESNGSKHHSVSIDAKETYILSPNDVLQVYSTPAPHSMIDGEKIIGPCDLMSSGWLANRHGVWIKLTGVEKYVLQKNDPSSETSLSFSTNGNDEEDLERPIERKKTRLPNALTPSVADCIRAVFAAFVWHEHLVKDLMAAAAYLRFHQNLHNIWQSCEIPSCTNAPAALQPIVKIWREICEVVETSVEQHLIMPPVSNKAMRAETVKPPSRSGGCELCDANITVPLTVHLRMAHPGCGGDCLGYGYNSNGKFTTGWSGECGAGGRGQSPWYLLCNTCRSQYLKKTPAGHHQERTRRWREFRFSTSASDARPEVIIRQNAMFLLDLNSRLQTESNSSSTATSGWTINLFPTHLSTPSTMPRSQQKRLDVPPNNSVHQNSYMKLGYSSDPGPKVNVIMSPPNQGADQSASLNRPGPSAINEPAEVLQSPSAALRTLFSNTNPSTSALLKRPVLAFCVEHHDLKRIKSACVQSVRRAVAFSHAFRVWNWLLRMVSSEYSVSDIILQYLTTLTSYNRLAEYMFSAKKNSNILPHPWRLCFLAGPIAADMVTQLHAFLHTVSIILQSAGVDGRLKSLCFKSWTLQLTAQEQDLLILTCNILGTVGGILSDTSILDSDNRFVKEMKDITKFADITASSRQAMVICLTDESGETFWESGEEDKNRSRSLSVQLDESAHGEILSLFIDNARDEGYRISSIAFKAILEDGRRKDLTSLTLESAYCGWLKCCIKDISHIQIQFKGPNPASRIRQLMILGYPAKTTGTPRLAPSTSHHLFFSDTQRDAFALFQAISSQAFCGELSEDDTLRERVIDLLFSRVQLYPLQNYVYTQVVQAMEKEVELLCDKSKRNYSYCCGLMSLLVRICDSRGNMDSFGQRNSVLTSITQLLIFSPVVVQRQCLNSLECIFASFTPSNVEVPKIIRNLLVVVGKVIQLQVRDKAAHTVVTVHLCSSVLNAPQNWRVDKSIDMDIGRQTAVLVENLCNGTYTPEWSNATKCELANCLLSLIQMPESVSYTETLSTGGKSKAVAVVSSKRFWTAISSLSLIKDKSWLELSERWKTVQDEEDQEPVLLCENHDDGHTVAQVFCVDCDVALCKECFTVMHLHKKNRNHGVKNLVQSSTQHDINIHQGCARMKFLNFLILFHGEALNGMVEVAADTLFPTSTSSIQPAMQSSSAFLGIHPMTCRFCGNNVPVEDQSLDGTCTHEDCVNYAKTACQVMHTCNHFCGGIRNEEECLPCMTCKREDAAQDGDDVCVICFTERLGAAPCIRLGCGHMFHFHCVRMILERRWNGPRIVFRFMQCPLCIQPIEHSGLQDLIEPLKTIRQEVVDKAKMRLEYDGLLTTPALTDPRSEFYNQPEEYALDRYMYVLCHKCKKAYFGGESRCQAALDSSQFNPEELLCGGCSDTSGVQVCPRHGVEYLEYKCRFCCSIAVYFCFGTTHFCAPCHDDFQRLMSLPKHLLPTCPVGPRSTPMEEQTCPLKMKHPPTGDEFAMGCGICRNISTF
UniProt G5ECU1: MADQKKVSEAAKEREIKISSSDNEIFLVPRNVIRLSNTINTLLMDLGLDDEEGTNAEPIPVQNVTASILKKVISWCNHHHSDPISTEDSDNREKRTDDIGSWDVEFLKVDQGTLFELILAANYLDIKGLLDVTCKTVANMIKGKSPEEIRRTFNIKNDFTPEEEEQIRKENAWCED

B1: FSN-1 (protein, UniProt Q18223 1-332)
chain: MAENDGETIVPDEQCNLTASTPMKSSGLEQVESPKERKTSMVECDDEGNPSSGTPDESPKQLTPHSIPPRRRRSPRRPEVSASRLPLKVLNQIFQYLPLKDLRSAMLTCHSWNNALSMEDSDIWQYLLGKKLPEAAVSDPFLLAELGSAKKKLRAWYFAWNTSDISRNNYIRTNGFTVHRQPVAQSTDGVRGKRGISKGVHAFDITWDGPLGTVAVVGIATKHAALHCVGYVALLGSDDQSWGWNLVDNVLMHNGAQLGVYPKMNNPPKYEVGDKIRLIIDCDTHVAYFERNSEFLGIAFNHIPPLRLYPAVCAVYGNTEVTMVYVGSPQMG
B2: GLO-4 (protein, UniProt Q5DX34 1-1386)
chain: MFFKRSTNSRKTSANSSSDTSTSSESLLLPLLNNTKAGARSQKGSVHRQSGKKARRKMMENPYVCSLELDELSADDSIIDYSVFSDDSFLLILLLTSKGDVQAYLETSRDTKPRKNVVNIKTACSLNVSPVTVCIGSQAAFAIFGLADGNLLVTPIRLLIDVTWGGSSWATTTVIDLSLPTVDPCLATPTCTKCFVSNFPPCTMAVVANKAGNILLVDLHLRKCVSELKAPQSLHQIDILLDENSIELLVTGFTGAQWIIPIERSGKGFREVLTTCVPSDLTVLEPATMQFFAADSCGVVALDTTESIVEVYNTFHSLAHSSKRTFKVPPETWMVHAGDNMLFTVSNDNEIRSALHFGFMSSRLEYTLVRTSTNWRPLGIVAMPSRPHKLAGIFVVNERGLVRVEQSTALNLTKIASEFFFRLSPLQLNSKSVAQVANACRIDTAEFQSALIPNLLSTRKNRQLTNKELSQIYSIAKAINLSMSDLLKAFENESIGEQLLPEVLNTIQTNPAKHDNLMQRVVEMFVKRSLSAEGNMDKIREYDAELSNFLARHEHLHKGSVDCAKAGMWKCTQTLVRRDVHETKSIDTSTEVLLYIIKNRLQIWNEANSTDRLQIMSLVCHLDWSKLADADGARVCAILSAWQRDISLPSYHEMCLRIAITNSDRFPRPCQILSLVSSIHILSEKKISNHANLPNFLPLAGGNNCGATITEDDRLMIWGNFTNAQQRMEMPQMNAKSKRSDSVTNGAPTLPPPAPKPEQHLPRVLEYPGGRPRAIACGAEHILVLSSSGQLSAWGGNRFGQCGVGHSFRIANLHQVDGDWPAIEKIACGQFHSAFICSDGSLWTFGWGVWGQLGHGGRNNSNQLVPTRVNGLICKVTQIACGRAHTVVLTDTGRVLVCGSGSYGQMGVDDDIKKVFAFTPLPLGPLRVRDIATHYYHSICITEDNRVFEWGRNPQELKMRMFVMKKIRSAQLKNTEDPSSPSPSTNGSTPRVNLNLPAEIPREDLGLREVKHFLDGNIVSVACGLSHSALITSEGTLYTWGKGLDYQLGHGNKNERMEPHQVFEPNGAKWVNVSLGNNHTIASTDDGSVFAWGKNDFGQCGVLTKKNGNSADVTKKFFFQARDGRRFMPNVDESQFVQKPGLIPDVRVRNLNEDGNEGVDKEEIVDRLKASDVNVVQAVSKHLYSPIEGKCNGSIIEDEPRNGKIQKQNKYDGEDGPLCTTTALVHLIAGDVKRAIRMIEWLKTDSSTCEKSLMVLSSLVWEVMANHEDVQSREALSAAFRHVPMSDSMRKGKQIAQLWPAVWNDERVQSSLSIDEKIAMLDGFTSASKPVSCPTIPSSSLEVSSKIRVYAQCAHAEPAAVGSPPECSTCLDEWTEKVRHTLGTQL
B3: RAE-1 (protein, UniProt Q93454 1-373)
chain: MFGSSGFGNKSMFGGSNISTSTTTPAANTTQNDDFLVDGAPEDTIQVIKFSPTPQDKPMLACGSWDGTIRVWMFNDANTFEGKAQQNIPAPILDIAWIEDSSKIFIACADKEARLWDLASNQVAVVGTHDGPVKTCHWINGNNYQCLMTGSFDKTLRFWDMKNLPNQTQMAQIQLPERVYAADVLYPMAVVALANKHIKVYNLENGPTEVKDIESQLKFQIRCISIFKDKSNQNPAGFALGSIEGRVAVQYVDVANPKDNFTFKCHRSAELVNGFQEIYAVNDICFHPQHGTLVTIGSDGRYSMWDKDARTKLKTSEPHPMPLTCCDVHSSGAFLVYALGYDWSRGHEGNTQPGSKIVIHKCIEDMKPRPTKK
B4: PPM-2 (enzyme, UniProt P49596 1-356)
chain: MGQTLSEPVTKKESASCANENYLVGSSCMQGWRVDMEDAHTHLLSLPDDPKCAFFAVYDGHGGSKVSQYSGINLHKKVVAQKEFSEGNMKEAIEKGFLELDQQMRVDEETKDDVSGTTAVVVLIKEGDVYCGNAGDSRAVSSVVGEARPLSFDHKPSHETEARRIIAAGGWVEFNRVNGNLALSRALGDFAFKNCDTKPAEEQIVTAFPDVITDKLTPDHEFIVLACDGIWDVMTNQEVVDFVREKLAEKRDPQSICEELLTRCLAPDCQMGGLGCDNMTVVLVGLLHGQSPDTLFTKCARPAVFTGVNNEDGDQNQIQQDISRVINNFDGEQRVNAANQEEEEDDNEPAPANFQV

What follows are molecules tested against GS::RPM-1 (C. elegans) (UniProt Q17551) (assay: affinity purification with mass spectrometry; GS-tagged bait captured from cryomilled whole-worm lysate (80 mg total protein) on Dynabeads M280 anti-rabbit IgG, 4 h at 4 °C, five washes with lysis buffer (50 mM Tris HCl or HEPES pH 7.5, 150 mM NaCl, 1.5 mM MgCl2, 10% glycerol, 0.1-0.3% NP-40 or 0.1% CHAPS); in-gel trypsin digestion, LC-MS/MS; seven independent experiments).

binding, binds:
SKR-1 (from UniProt G5ECU1 1-176)
B1
B2
B3
B4
